# Measured values: doi:10.1101/2025.09.20.676678
# The chains behind the UniProt entries cited, without tags or fusion partners.
# UniProt P25440: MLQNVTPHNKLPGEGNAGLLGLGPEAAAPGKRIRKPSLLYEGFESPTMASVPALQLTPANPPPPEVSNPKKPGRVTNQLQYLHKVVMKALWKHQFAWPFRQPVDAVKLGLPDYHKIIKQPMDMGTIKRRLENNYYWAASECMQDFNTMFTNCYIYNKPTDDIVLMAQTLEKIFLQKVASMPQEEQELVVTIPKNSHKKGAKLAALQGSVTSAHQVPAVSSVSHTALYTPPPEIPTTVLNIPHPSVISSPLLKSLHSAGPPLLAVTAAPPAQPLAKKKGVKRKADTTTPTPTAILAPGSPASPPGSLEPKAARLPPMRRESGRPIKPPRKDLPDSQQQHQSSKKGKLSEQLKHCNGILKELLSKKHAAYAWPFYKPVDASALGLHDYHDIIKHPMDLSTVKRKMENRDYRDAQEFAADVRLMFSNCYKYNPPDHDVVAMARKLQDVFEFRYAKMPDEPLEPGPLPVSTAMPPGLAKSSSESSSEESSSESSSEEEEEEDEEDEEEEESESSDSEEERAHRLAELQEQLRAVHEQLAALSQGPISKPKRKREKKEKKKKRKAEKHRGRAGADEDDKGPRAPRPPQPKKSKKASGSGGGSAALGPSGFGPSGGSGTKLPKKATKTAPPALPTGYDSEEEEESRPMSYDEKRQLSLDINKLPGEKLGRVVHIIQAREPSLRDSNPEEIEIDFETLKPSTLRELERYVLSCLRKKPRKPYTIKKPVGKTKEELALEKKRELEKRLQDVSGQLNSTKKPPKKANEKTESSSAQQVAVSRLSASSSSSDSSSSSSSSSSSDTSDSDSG
# UniProt Q15059: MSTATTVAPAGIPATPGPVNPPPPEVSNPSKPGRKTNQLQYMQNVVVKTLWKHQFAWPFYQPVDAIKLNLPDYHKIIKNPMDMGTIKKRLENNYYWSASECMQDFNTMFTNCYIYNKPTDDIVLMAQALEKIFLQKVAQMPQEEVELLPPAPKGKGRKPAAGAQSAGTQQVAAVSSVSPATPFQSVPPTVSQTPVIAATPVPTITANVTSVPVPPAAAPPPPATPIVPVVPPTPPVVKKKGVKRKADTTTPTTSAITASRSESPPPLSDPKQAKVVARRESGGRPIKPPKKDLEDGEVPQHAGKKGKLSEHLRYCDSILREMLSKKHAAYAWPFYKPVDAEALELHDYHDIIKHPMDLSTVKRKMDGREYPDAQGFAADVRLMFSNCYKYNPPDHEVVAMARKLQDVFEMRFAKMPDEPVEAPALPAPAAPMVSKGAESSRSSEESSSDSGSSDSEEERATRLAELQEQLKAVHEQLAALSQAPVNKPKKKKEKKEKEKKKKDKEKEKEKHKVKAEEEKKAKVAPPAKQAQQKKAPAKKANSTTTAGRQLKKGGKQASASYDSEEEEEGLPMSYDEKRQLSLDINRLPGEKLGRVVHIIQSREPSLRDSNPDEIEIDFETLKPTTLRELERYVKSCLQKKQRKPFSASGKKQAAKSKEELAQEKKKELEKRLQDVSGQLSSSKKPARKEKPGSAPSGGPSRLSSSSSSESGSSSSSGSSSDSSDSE
# UniProt P21675: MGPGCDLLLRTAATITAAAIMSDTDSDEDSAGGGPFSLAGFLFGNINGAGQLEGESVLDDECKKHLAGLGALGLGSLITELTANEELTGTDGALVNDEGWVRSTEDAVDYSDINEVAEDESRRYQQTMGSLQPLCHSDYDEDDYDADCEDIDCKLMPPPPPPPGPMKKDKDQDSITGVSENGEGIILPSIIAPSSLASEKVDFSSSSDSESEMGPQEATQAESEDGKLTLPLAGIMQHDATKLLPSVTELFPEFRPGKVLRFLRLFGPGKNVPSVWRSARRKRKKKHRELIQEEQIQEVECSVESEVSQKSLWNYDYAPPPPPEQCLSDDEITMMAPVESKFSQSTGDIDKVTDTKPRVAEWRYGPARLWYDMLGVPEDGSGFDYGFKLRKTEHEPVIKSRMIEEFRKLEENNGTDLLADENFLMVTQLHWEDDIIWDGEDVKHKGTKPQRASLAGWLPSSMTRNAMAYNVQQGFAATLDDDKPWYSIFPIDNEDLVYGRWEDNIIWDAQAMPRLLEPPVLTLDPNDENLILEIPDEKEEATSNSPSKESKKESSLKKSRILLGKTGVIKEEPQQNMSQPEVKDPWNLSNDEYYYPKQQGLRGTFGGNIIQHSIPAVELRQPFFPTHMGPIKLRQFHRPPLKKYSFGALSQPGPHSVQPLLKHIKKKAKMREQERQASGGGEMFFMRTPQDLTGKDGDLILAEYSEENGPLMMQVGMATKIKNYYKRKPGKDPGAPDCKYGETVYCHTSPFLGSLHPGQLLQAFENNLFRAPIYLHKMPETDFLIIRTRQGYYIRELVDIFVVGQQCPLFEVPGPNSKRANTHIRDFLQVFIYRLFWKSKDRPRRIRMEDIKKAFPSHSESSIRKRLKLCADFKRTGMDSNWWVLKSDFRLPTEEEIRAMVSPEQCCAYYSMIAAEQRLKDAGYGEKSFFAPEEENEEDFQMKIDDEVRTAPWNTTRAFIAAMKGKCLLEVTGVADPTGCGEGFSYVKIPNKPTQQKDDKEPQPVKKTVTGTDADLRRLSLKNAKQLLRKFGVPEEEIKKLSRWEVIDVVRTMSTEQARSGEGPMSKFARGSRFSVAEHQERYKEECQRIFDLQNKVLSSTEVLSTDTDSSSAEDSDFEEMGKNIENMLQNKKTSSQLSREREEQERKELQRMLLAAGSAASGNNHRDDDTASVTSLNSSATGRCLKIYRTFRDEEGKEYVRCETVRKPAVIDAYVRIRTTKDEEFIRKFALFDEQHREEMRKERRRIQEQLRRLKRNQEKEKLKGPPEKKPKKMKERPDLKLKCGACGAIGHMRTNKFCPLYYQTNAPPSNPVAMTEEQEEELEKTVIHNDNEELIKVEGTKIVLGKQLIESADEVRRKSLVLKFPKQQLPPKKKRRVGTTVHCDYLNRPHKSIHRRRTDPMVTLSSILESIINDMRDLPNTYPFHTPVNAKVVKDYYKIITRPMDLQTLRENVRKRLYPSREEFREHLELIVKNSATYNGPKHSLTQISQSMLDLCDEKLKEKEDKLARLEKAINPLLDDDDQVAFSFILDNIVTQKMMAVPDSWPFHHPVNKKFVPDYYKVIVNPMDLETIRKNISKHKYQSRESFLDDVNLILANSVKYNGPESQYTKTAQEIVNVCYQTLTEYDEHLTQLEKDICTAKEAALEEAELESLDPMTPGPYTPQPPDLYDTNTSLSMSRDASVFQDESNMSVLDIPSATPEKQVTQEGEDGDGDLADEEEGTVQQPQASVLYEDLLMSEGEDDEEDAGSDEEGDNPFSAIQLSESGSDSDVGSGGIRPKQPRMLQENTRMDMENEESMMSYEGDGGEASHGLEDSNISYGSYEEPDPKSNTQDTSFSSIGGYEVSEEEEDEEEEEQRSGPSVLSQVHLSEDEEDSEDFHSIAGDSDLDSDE
# UniProt P49848: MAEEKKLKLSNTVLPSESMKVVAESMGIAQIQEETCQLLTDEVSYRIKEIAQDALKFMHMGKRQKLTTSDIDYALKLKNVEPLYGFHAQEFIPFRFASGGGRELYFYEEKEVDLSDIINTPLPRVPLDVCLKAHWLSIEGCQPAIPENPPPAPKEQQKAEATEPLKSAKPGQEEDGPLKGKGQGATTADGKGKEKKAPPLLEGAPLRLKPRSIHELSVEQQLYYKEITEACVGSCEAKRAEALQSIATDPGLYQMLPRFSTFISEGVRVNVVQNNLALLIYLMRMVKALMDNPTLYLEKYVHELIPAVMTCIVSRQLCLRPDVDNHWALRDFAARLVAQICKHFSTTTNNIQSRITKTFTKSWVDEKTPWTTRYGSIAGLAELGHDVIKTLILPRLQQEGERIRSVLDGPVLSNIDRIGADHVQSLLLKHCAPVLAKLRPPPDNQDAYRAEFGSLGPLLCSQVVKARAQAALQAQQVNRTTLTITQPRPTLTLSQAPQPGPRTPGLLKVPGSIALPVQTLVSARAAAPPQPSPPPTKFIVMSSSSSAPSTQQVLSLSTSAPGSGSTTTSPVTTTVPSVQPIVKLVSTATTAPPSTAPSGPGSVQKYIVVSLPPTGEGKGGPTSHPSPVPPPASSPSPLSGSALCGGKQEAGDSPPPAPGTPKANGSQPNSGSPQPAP
# UniProt P20226: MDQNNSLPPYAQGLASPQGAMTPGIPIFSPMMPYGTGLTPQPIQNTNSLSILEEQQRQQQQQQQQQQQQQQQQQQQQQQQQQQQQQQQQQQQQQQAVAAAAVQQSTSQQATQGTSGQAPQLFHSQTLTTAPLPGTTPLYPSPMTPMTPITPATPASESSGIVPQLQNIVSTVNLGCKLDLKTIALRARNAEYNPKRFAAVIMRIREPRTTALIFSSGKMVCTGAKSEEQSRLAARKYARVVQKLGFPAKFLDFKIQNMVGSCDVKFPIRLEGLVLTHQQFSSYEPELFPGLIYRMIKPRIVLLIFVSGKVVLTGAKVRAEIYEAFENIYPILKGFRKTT
# These are yes or no findings as the source states them, for the method shown. Binding seen in cells or lysates may run through a third protein. Some binding calls cover weakened binding; strength is not graded here.
# How the values were obtained:
# Assay in all cases: co-IP
# [1] = molecular target: GFP-tagged and nuclear-localized full length BRD2 (GFP-BRD2FL) (UniProt P25440)
# [2] = molecular target: endogenous, V5-tagged BRD2 of the BRD2-IAA7 degron line (E2) (human (endogenous in DLD-1)) (UniProt P25440)
# [3] = molecular target: GFP-tagged BRD3 (full-length) (UniProt Q15059)
Substance,binding [1],binding [2],binding [3]
TAF1 (TFIID subunit) (from UniProt P21675 1-1893),binds,binds,binds
TAF6 (TFIID subunit) (from UniProt P49848 1-677),binds,–,binds
TBP (TFIID subunit) (from UniProt P20226 1-339),binds,binds,binds
